Laboratory results taken from the supplement of paper PMC4604168 (melanoma cell lines).
Some of the results follow. Repeats are few or missing, and single values can be far off.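 Imaging used 1,536-well plates; nuclei positive for cleaved PARP by antibody were divided by total DNA-stained nuclei to yield the apoptosis fraction. Doses for screening kept most cells viable, and cell lines differ markedly in resting and induced cleaved-PARP levels.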

Assays:
Assay in all cases: cleaved PARP positive nuclei fraction relative to DMSO control; melanoma cells; higher = more apoptosis
Conditions in all cases: library dose: low library concentration; 72 h
MZ2-MEL = test system: MZ2-MEL
MeWo = test system: MeWo
RPMI7951 = test system: RPMI7951
RVH-421 = test system: RVH-421
SkMel28 = test system: SkMel28
SkMel2 = test system: SkMel2
SkMel30 = test system: SkMel30
SkMel5 = test system: SkMel5
UACC257 = test system: UACC257
UACC62 = test system: UACC62
WM115 = test system: WM115
WM1716 = test system: WM1716
WM1745 = test system: WM1745
WM3526 = test system: WM3526
WM3619 = test system: WM3619
WM451Lu = test system: WM451Lu

Row | SMILES | cleaved PARP positive nuclei fraction (MZ2-MEL) | cleaved PARP positive nuclei fraction (MeWo) | cleaved PARP positive nuclei fraction (RPMI7951) | cleaved PARP positive nuclei fraction (RVH-421) | cleaved PARP positive nuclei fraction (SkMel28) | cleaved PARP positive nuclei fraction (SkMel2) | cleaved PARP positive nuclei fraction (SkMel30) | cleaved PARP positive nuclei fraction (SkMel5) | cleaved PARP positive nuclei fraction (UACC257) | cleaved PARP positive nuclei fraction (UACC62) | cleaved PARP positive nuclei fraction (WM115) | cleaved PARP positive nuclei fraction (WM1716) | cleaved PARP positive nuclei fraction (WM1745) | cleaved PARP positive nuclei fraction (WM3526) | cleaved PARP positive nuclei fraction (WM3619) | cleaved PARP positive nuclei fraction (WM451Lu)
1 | O=c1[nH]nc(Sc2ncc([N+](=O)[O-])s2)n1-c1ccc2c(c1)OCCO2 + COc1cc(N2CCC(N3CCN(C)CC3)CC2)ccc1Nc1ncc(Cl)c(Nc2ccccc2S(=O)(=O)C(C)C)n1 [NVP-TAE684] (first compound 0.2 µM, partner dose 0.08 µM) | 78.9% | 93.6% | 161% | 64.6% | 108% | 132% | 150% | 76.1% | 134% | 242% | 80.5% | 99.2% | 120% | 68.7% | 122% | 73.5%
2 | Cc1cn(-c2cc(NC(=O)c3ccc(C)c(Nc4nccc(-c5cccnc5)n4)c3)cc(C(F)(F)F)c2)cn1 [nilotinib] + COc1ccc2c(c1)CCC1C2CCC2(C)C(NCCCCCCN3C(=O)C=CC3=O)CCC12 [U73122] (first compound 0.2 µM, partner dose 0.4 µM) | 82.3% | 125% | 717% | 200% | 150% | 63.8% | 267% | 60.7% | 46.5% | 211% | 54.7% | 166% | 113% | 131% | 76.3% | 66%
3 | Cc1cn(-c2cc(NC(=O)c3ccc(C)c(Nc4nccc(-c5cccnc5)n4)c3)cc(C(F)(F)F)c2)cn1 [nilotinib] + O=S(=O)(c1ccccc1)N(CC(F)(F)F)c1ccc(C(O)(C(F)(F)F)C(F)(F)F)cc1 [T0901317] (first compound 0.2 µM, partner dose 1.4 µM) | 98.2% | 36.6% | 134% | 75.9% | 159% | 28.2% | 43.6% | 81.9% | 139% | 254% | 181% | 308% | 116% | 355% | 100% | 103%
4 | N#CC[C@H](C1CCCC1)n1cc(-c2ncnc3[nH]ccc23)cn1 [ruxolitinib] + O=C(O)C(=O)Nc1sc2c(c1C(=O)O)CCNC2 [TCS401] (first compound 1 µM, partner dose 1.66667 µM) | 99% | 126% | 118% | 120% | 145% | 98.6% | 67.8% | 41.2% | 368% | 145% | 64% | 60.7% | 180% | 41.5% | 114% | 79.2%
5 | O=c1[nH]nc(Sc2ncc([N+](=O)[O-])s2)n1-c1ccc2c(c1)OCCO2 + COC(=O)c1sccc1S(=O)(=O)Nc1ccc(Nc2ccccc2)cc1OC [GSK0660] (first compound 0.2 µM, partner dose 1 µM) | 66.1% | 66.2% | 106% | 189% | 49.1% | 70.5% | 15.8% | 81.4% | 80.4% | 67.8% | 181% | 103% | 79.6% | 38.8% | 134% | 104%
6 | O=C(Nc1cc(C(F)(F)F)cc(C(F)(F)F)c1)c1cc(Cl)ccc1O + COc1cc2ncnc(Nc3ccc(Oc4ccccc4)cc3)c2cc1OC [SrcI1] (first compound 0.016 µM, partner dose 2 µM) | 57.6% | 174% | 120% | 42.5% | 39.7% | 86.2% | 25.8% | 87.7% | 130% | 73.1% | 26.4% | 44.4% | 100% | 47% | 98.4% | 119%
7 | O=C(/C=C/c1cccnc1)NCCCCC1CCN(C(=O)c2ccccc2)CC1 + c1cc(-c2cnn3cc(-c4ccc(OCCN5CCCCC5)cc4)cnc23)ccn1 [Dorsomorphin] (first compound 0.01 µM, partner dose 0.4 µM) | 443% | 59.3% | 127% | 118% | 123% | 533% | 76.3% | 156% | 67.8% | 152% | 68.2% | 54% | 91.4% | 160% | 105% | 166%
8 | CCCCCCCCCCCCCCCCCCOP(=O)([O-])OC1CC[N+](C)(C)CC1 [Perifosine] + CCc1ccc(CCOc2ccc(CC3SC(=O)NC3=O)cc2)nc1 [pioglitazone] (first compound 0.4 µM, partner dose 2 µM) | 159% | 136% | 57.1% | 87.9% | 107% | 59.1% | 49.2% | 66.5% | 74.3% | 247% | 117% | 182% | 88.9% | 88.8% | 104% | 565%
9 | O=c1[nH]nc(Sc2ncc([N+](=O)[O-])s2)n1-c1ccc2c(c1)OCCO2 + O=C(Nc1ccccc1)c1cc([N+](=O)[O-])ccc1Cl [GW9662] (first compound 0.2 µM, partner dose 2 µM) | 94.9% | 130% | 68.6% | 231% | 87.4% | 138% | 74.8% | 77.4% | 43% | 162% | 70.9% | 156% | 89.9% | 82.2% | 97.2% | 69.8%
10 | CC[C@]1(O)C[C@H]2CN(CCc3c([nH]c4ccccc34)[C@@](C(=O)OC)(c3cc4c(cc3OC)N(C=O)[C@H]3[C@@](O)(C(=O)OC)[C@H](OC(C)=O)[C@]5(CC)C=CCN6CC[C@]43[C@@H]65)C2)C1 [vincristine] + COc1ccc(COc2ccc(Cc3cnc(N)nc3N)cc2OC)cc1 [GW2580] (first compound 0.0001 µM, partner dose 1 µM) | 179% | 189% | 121% | 46.2% | 127% | 79.6% | 118% | 73.9% | 141% | 87.7% | 202% | 124% | 79.3% | 98.4% | 103% | 97.9%
11 | Cc1cc(Nc2cc(N3CCN(C)CC3)nc(Sc3ccc(NC(=O)C4CC4)cc3)n2)n[nH]1 [Tozasertib] + C[C@@H]1CCN(C(=O)CC#N)C[C@@H]1N(C)c1ncnc2[nH]ccc12 [CP690550] (first compound 0.006 µM, partner dose 1 µM) | 108% | 32.4% | 87.4% | 26.1% | 59.3% | 125% | 235% | 134% | 50.9% | 105% | 66.2% | 183% | 106% | 115% | 106% | 27%
12 | COc1cc([C@@H]2c3cc4c(cc3[C@@H](O[C@@H]3O[C@@H]5CO[C@@H](C)O[C@H]5[C@H](O)[C@H]3O)[C@H]3COC(=O)[C@H]23)OCO4)cc(OC)c1O [etoposide] + c1cc(-c2cnn3cc(-c4ccc(OCCN5CCCCC5)cc4)cnc23)ccn1 [Dorsomorphin] (first compound 0.02 µM, partner dose 0.4 µM) | 62.7% | 223% | 43.4% | 26.4% | 147% | 61.8% | 77.4% | 93.1% | 160% | 60.2% | 41% | 186% | 112% | 134% | 98.7% | 165%
